Measurements reported in PubChem BioAssay AID1508597 (Cure First, 2020).

Purpose: 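Genes whose silencing sensitises or protects ovarian cancer cells against rucaparib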 (primary screen)
Cell system: human ovarian carcinoma lines grown from tumours: OCI-P5x (papillary serous) and OCI-C5x (clear cell)
Reagent: siRNA pool against human genes, 1.25 pmol siRNA per well
Time to read-out: 72 h or 96 h, depending on the cell culture
Conditions: rucaparib 20 µM (about IC30) or vehicle, present until read-out
Rucaparib or vehicle: Rucaparib
Cell line: OCI-P5x (serous)
Measured: 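Luminescent ATP-based viability assay read 72 or 96 h after transfection, depending on culture, given as normalised percent viability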
Reading the numbers: viability, normalised: higher = more viable cells remaining
Active means: 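Active when normalised viability falls below 80 percent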
Meaning of the calls: active = viability under 80%; inactive = viability 80% or more
This is a random part of the about 2,100 reagents, under one of the conditions tested. 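Calls flag viability under 80% in either arm, not effects specific to rucaparib; the reference for percent is not stated.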 Some reagents were tested in more than one well and are listed for each. Not stated in the record: the 100% reference.

no.	target gene	PubChem SID	technical replicate	viability, normalised (%)	outcome
1	SLC16A2 (GeneID 6567)	SID405527308	1	36.9	active
2	SLC16A2 (GeneID 6567)	SID405527308	2	39.2	active
3	SLC16A2 (GeneID 6567)	SID405527308	3	43.4	active
4	ITGB5 (GeneID 3693)	SID405526386	1	57.6	active
5	ITGB5 (GeneID 3693)	SID405526386	2	53.2	active
6	ITGB5 (GeneID 3693)	SID405526386	3	61.6	active
7	PDPK1 (GeneID 5170)	SID405527364	1	112	inactive
8	PDPK1 (GeneID 5170)	SID405527364	2	115	inactive
9	PDPK1 (GeneID 5170)	SID405527364	3	77.6	active
10	STC1 (GeneID 6781)	SID405527522	1	90	inactive
11	STC1 (GeneID 6781)	SID405527522	2	96.9	inactive
12	STC1 (GeneID 6781)	SID405527522	3	77.1	active
13	NODAL (GeneID 4838)	SID405527084	1	52.4	active
14	NODAL (GeneID 4838)	SID405527084	2	62	active
15	NODAL (GeneID 4838)	SID405527084	3	60.7	active
16	HDAC5 (GeneID 10014)	SID405526843	1	75	active
17	HDAC5 (GeneID 10014)	SID405526843	2	62.8	active
18	HDAC5 (GeneID 10014)	SID405526843	3	66.2	active
19	PLCB4 (GeneID 5332)	SID405526708	1	59.2	active
20	PLCB4 (GeneID 5332)	SID405526708	2	51.6	active
21	PLCB4 (GeneID 5332)	SID405526708	3	48.2	active
22	MYOD1 (GeneID 4654)	SID405527048	1	43.7	active
23	MYOD1 (GeneID 4654)	SID405527048	2	33	active
24	MYOD1 (GeneID 4654)	SID405527048	3	46.3	active
25	LMNA (GeneID 4000)	SID405528264	1	88.4	inactive
26	LMNA (GeneID 4000)	SID405528264	2	129	inactive
27	LMNA (GeneID 4000)	SID405528264	3	106	inactive
28	PGGT1B (GeneID 5229)	SID405527137	1	37.4	active
29	PGGT1B (GeneID 5229)	SID405527137	2	43.3	active
30	PGGT1B (GeneID 5229)	SID405527137	3	42.8	active
31	DMBT1 (GeneID 1755)	SID405528228	1	52.5	active
32	DMBT1 (GeneID 1755)	SID405528228	2	47	active
33	DMBT1 (GeneID 1755)	SID405528228	3	59.4	active
34	NCOA6 (GeneID 23054)	SID405528450	1	66	active
35	NCOA6 (GeneID 23054)	SID405528450	2	69.2	active
36	NCOA6 (GeneID 23054)	SID405528450	3	81.2	inactive
37	PHF21B (GeneID 112885)	SID405527152	1	52.5	active
38	PHF21B (GeneID 112885)	SID405527152	2	51.1	active
39	PHF21B (GeneID 112885)	SID405527152	3	56.9	active
40	DEAF1 (GeneID 10522)	SID405528207	1	72.6	active
41	DEAF1 (GeneID 10522)	SID405528207	2	77.2	active
42	DEAF1 (GeneID 10522)	SID405528207	3	63.9	active
43	SNRNP200 (GeneID 23020)	SID405526318	1	51.5	active
44	SNRNP200 (GeneID 23020)	SID405526318	1	57.1	active
45	SNRNP200 (GeneID 23020)	SID405526318	2	52.3	active
46	SNRNP200 (GeneID 23020)	SID405526318	2	51.5	active
47	SNRNP200 (GeneID 23020)	SID405526318	3	48.9	active
48	SNRNP200 (GeneID 23020)	SID405526318	3	55.3	active
49	PKN1 (GeneID 5585)	SID405526474	1	43.8	active
50	PKN1 (GeneID 5585)	SID405526474	1	87.8	inactive
51	PKN1 (GeneID 5585)	SID405526474	1	106	inactive
52	PKN1 (GeneID 5585)	SID405526474	2	90.1	inactive
53	PKN1 (GeneID 5585)	SID405526474	2	39.6	active
54	PKN1 (GeneID 5585)	SID405526474	2	98.2	inactive
55	PKN1 (GeneID 5585)	SID405526474	3	110	inactive
56	PKN1 (GeneID 5585)	SID405526474	3	51.9	active
57	PKN1 (GeneID 5585)	SID405526474	3	83.7	inactive
58	RPA3 (GeneID 6119)	SID405528324	1	76.3	active
59	RPA3 (GeneID 6119)	SID405528324	2	79.2	active
60	RPA3 (GeneID 6119)	SID405528324	3	71	active
61	RECQL5 (GeneID 9400)	SID405527243	1	176	inactive
62	RECQL5 (GeneID 9400)	SID405527243	1	51.1	active
63	RECQL5 (GeneID 9400)	SID405527243	2	177	inactive
64	RECQL5 (GeneID 9400)	SID405527243	2	52.4	active
65	RECQL5 (GeneID 9400)	SID405527243	3	153	inactive
66	RECQL5 (GeneID 9400)	SID405527243	3	49	active
67	PIM3 (GeneID 415116)	SID405527698	1	95.9	inactive
68	PIM3 (GeneID 415116)	SID405527698	2	77.5	active
69	PIM3 (GeneID 415116)	SID405527698	3	79.7	active
70	IL23A (GeneID 51561)	SID405526894	1	61.6	active
71	IL23A (GeneID 51561)	SID405526894	2	61.3	active
72	IL23A (GeneID 51561)	SID405526894	3	59	active
73	JADE3 (GeneID 9767)	SID405527145	1	54.5	active
74	JADE3 (GeneID 9767)	SID405527145	2	56	active
75	JADE3 (GeneID 9767)	SID405527145	3	63.2	active

Reformatted: entries from further up.
target gene | PubChem SID | technical replicate | viability, normalised (%) | outcome
DEAF1 (GeneID 10522) | SID405528207 | 2 | 77.2 | active
DEAF1 (GeneID 10522) | SID405528207 | 3 | 63.9 | active
SNRNP200 (GeneID 23020) | SID405526318 | 1 | 51.5 | active
SNRNP200 (GeneID 23020) | SID405526318 | 1 | 57.1 | active
SNRNP200 (GeneID 23020) | SID405526318 | 2 | 52.3 | active
SNRNP200 (GeneID 23020) | SID405526318 | 2 | 51.5 | active
SNRNP200 (GeneID 23020) | SID405526318 | 3 | 48.9 | active
SNRNP200 (GeneID 23020) | SID405526318 | 3 | 55.3 | active
PKN1 (GeneID 5585) | SID405526474 | 1 | 43.8 | active
PKN1 (GeneID 5585) | SID405526474 | 1 | 87.8 | inactive
PKN1 (GeneID 5585) | SID405526474 | 1 | 106 | inactive
